Laboratory results from US20050123923A1.
No constants are given. Whether binding was seen depends on the method and setting. Some entries that bind do so weakly or less than the wild type.

The chains behind the UniProt entries cited, without tags or fusion partners. Where a name states a change or a piece, a line headed by the entry shows the natural chain unless it says otherwise. Residues count along the entry.
UniProt P0DQD5: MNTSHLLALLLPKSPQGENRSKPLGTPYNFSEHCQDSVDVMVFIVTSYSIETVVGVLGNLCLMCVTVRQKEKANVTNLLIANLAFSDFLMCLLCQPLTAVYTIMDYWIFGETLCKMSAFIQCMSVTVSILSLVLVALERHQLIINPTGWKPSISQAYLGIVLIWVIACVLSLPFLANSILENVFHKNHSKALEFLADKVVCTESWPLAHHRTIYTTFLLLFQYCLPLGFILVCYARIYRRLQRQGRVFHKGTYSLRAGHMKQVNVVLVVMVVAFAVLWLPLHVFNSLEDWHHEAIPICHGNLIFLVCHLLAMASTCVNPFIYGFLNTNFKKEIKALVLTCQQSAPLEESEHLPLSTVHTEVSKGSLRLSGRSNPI
UniProt P01298, residues 30-65: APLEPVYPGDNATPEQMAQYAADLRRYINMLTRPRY

Molecular target: human PPY1 receptor mutant 826 (codon 276, Val->Met) (Construct 3) (human) (UniProt P0DQD5)
Test: radioligand competition (summary of the examples)

- binding: binds
Substance: human pancreatic polypeptide (hPP) (from UniProt P01298 30-65)
